The values that follow come from patent US20200246381A1 (NANJING IASO BIOTHERAPEUTICS, published 2020).

In the test the target is T1, biotinylated BCMA protein (human, UniProt Q02223 1-54, biotinylated (site not stated)).
T1 construct: Soluble labelled reagent, titrated from 295.86 nM to 3.79 pM and detected with PE streptavidin
T1 sequence (looked up): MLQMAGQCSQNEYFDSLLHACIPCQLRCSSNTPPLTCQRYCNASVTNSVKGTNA
In words: flow cytometry on transiently transfected 293T cells carrying the CAR; biotinylated BCMA titrated 295.86 nM to 3.79 pM, PE streptavidin, curve fitting. As for the experimental part: The expressions of the CAR molecules were evaluated by utilizing the methods in example 1. Specifically, the dose of the biotinylated BCMA was changed by the gradient dilution for protein concentration in the presence of excessive PE streptavidin with a fixed concentration, so that the change of PE signals as shown in FIG. 2B was obtained. X axis represented GFP protein signals expressed in the cells, and Y axis represented PE signals obtained by the CAR molecules marked using the gradiently-diluted biotinylated BCMA and the fixed amount of PE streptavidin.
The gradiently-diluted biotinylated BCMA protein (295.86 nM to 3.79 pM) was used to assay the 293T cells transiently transfected with the candidate CAR plasmids, so that a PE signal change curve (as shown in FIG. 3) was obtained. EC₅₀ values for the binding of BCMA proteins with CAR molecules on the surfaces of cells as measured by curve fitting, were as shown in Table 2.

B1: CAR0041 (other)
chain: YPYDVPDYADIVLTQSPPSLAMSLGKRATISCRASESVTILGSHLIHWYQQKPGQPPTLLIQLASNVQTGVPARFSGSGSRTDFTLTIDPVEEDDVAVYYCLQSRTIPRTFGGGTKLEIKGSTSGSGKPGSGEGSTKGQIQLVQSGPELKKPGETVKISCKASGYTFTDYSINWVKRAPGKGLKWMGWINTETREPAYAYDFRGRFAFSLETSASTAYLQINNLKYEDTATYFCALDYSYAMDYWGQGTSVTVSSFVPVFLPAKPTTTPAPRPPTPAPTIASQPLSLRPEACRPAAGGAVHTRGLDFACDIYIWAPLAGTCGVLLLSLVITLYCNHRNRSKRSRLLHSDYMNMTPRRPGPTRKHYQPYAPPRDFAAYRSRVKFSRSADAPAYQQGQNQLYNELNLGRREEYDVLDKRRGRDPEMGGKPRRKNPQEGLYNELQKDKMAEAYSEIGMKGERRRGKGHDGLYQGLSTATKDTYDALHMQALPPR
notes: Control chimeric antigen receptor on the surface of 293T or T cells, co-expressed with GFP through a T2A cleaving peptide; The CD8a signal peptide is left out; T2A residues that stay at the C-terminus after cleaving are not included; also called PXL0041; PXL0041-293T
Turning to B1, the EC50 is 0.3 nM.

B2: CAR0009 (other)
chain: DIVLTQSPPSLAMSLGKRATISCRASESVTILGSHLIHWYQQKPGQPPTLLIQLASNVQTGVPARFSGSGSRTDFTLTIDPVEEDDVAVYYCLQSRTIPRTFGGGTKLEIKGSTSGSGKPGSGEGSTKGQIQLVQSGPELKKPGETVKISCKASGYTFTDYSINWVKRAPGKGLKWMGWINTETREPAYAYDFRGRFAFSLETSASTAYLQINNLKYEDTATYFCALDYSYAMDYWGQGTSVTVSSFVPVFLPAKPTTTPAPRPPTPAPTIASQPLSLRPEACRPAAGGAVHTRGLDFACDIYIWAPLAGTCGVLLLSLVITLYCNHRNRSKRSRLLHSDYMNMTPRRPGPTRKHYQPYAPPRDFAAYRSRVKFSRSADAPAYQQGQNQLYNELNLGRREEYDVLDKRRGRDPEMGGKPRRKNPQEGLYNELQKDKMAEAYSEIGMKGERRRGKGHDGLYQGLSTATKDTYDALHMQALPPR
notes: Control chimeric antigen receptor on the surface of 293T or T cells; no HA-tag and no GFP; also called PXLV0009; PXL0009
On to B2, for which the EC50 was determined as 1.59 nM.
